In publication PMC7378894:
No constants are given. Whether binding was seen depends on the method and setting. Binding seen in cells or lysates may run through a third protein. Some binding calls cover weakened binding; strength is not graded here. For part of these data: Tags and fused reporters may be left off the sequences shown.

The chains behind the UniProt entries cited, without tags or fusion partners.
UniProt O75626: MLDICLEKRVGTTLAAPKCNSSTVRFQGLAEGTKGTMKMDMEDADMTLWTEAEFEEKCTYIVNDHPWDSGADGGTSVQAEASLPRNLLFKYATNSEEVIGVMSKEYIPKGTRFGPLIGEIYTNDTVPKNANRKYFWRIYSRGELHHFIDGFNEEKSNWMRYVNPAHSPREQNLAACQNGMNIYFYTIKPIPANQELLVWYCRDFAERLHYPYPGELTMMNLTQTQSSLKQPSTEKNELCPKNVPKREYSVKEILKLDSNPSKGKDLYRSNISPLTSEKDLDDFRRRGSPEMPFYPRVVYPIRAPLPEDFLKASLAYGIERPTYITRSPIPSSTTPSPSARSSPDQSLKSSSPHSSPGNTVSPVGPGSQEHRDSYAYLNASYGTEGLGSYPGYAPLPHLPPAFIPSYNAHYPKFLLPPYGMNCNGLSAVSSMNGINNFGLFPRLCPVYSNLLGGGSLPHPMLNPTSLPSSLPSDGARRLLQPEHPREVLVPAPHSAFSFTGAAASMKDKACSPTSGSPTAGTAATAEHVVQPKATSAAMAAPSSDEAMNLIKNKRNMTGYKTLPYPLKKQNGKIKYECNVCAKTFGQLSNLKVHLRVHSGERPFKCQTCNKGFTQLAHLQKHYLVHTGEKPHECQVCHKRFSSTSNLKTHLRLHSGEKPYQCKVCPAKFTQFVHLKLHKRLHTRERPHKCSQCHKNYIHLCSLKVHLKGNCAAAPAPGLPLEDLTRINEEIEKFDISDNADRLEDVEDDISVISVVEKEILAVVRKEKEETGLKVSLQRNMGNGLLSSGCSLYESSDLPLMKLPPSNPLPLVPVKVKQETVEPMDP

Columns and labels:
[1] = molecular target: Positive regulatory domain 1 (PRDM1) in monocyte derived-dendritic cells (human (endogenous in MO-DCs)) (UniProt O75626); assay: co-IP; nuclear fraction of MO-DCs incubated overnight at 4°C with anti-PRDM1 antibody or control IgG on protein G or A magnetic beads; immunoblot of the eluate
[2] = molecular target: Positive regulatory domain 1 (PRDM1) in monocyte derived-dendritic cells (human (endogenous in MO-DCs)) (UniProt O75626); assay: proximity ligation; in situ PLA (Duolink) on fixed, permeabilised primary MO-DCs, anti-PRDM1 or normal rabbit IgG with anti-TP53BP1, anti-hnRNPM or anti-NonO; unstimulated, and for NonO also after LPS for 6 h
[3] = molecular target: Positive regulatory domain 1 (PRDM1) in human myeloma cell lines (human (endogenous in U-266 and RPMI-8226)) (UniProt O75626); assay: proximity ligation; in situ PLA on RPMI-8226 myeloma cells, anti-NonO with anti-PRDM1 or control IgG
[4] = molecular target: Positive regulatory domain 1 (PRDM1) in human myeloma cell lines (human (endogenous in U-266 and RPMI-8226)) (UniProt O75626); assay: proximity ligation; in situ PLA on U-266 myeloma cells, anti-NonO with anti-PRDM1 or control IgG
[5] = molecular target: Positive regulatory domain 1 (PRDM1), expressed from the Origene tagged ORF clone in HEK-293 cells (human) (UniProt O75626); assay: proximity ligation; in situ PLA on transfected HEK-293 cells, PRDM1 antibody with Flag or V5 antibody; PRDM1 antibody alone as technical control
[6] = molecular target: Positive regulatory domain 1 (PRDM1), expressed from the Origene tagged ORF clone in HEK-293 cells (human) (UniProt O75626); assay: co-IP; nuclear extract of HEK-293 cells transiently transfected with PRDM1 and Flag-NonO, Flag-TP53BP1 or V5-hnRNPM; immunoprecipitated with anti-PRDM1 antibodies; anti-FLAG and anti-V5 immunoblot

B1: non-POU domain-containing octamer-binding protein (NonO) in monocyte derived-dendritic cells (protein, UniProt Q15233 1-471)
chain: MQSNKTFNLEKQNHTPRKHHQHHHQQQHHQQQQQQPPPPPIPANGQQASSQNEGLTIDLKNFRKPGEKTFTQRSRLFVGNLPPDITEEEMRKLFEKYGKAGEVFIHKDKGFGFIRLETRTLAEIAKVELDNMPLRGKQLRVRFACHSASLTVRNLPQYVSNELLEEAFSVFGQVERAVVIVDDRGRPSGKGIVEFSGKPAARKALDRCSEGSFLLTTFPRPVTVEPMDQLDDEEGLPEKLVIKNQQFHKEREQPPRFAQPGSFEYEYAMRWKALIEMEKQQQDQVDRNIKEAREKLEMEMEAARHEHQVMLMRQDLMRRQEELRRMEELHNQEVQKRKQLELRQEEERRRREEEMRRQQEEMMRRQQEGFKGTFPDAREQEIRMGQMAMGGAMGINNRGAMPPAPVPAGTPAPPGPATMMPDGTLGLTPPTTERFGQAATMEGIGAIGGTPPAFNRAAPGAEFAPNKRRRY
binding [1]: binds | binding [2]: binds

B2: non-POU domain-containing octamer-binding protein (NonO) in human myeloma cell lines (protein, UniProt Q15233 1-471)
chain: B1 chain
binding [3]: binds | binding [4]: binds

B3: Flag-NonO (non-POU domain-containing octamer-binding protein) (protein, UniProt Q15233 1-471)
chain: B1 chain
binding [5]: binds | binding [6]: binds
